± gives the standard deviation of the averaged measurements. This is a selection; strong and weak results do not stand in their true shares.
Compound: Nc1ncnc2c1ncn2[C@@H]1O[C@H](COP(=O)(O)OP(=O)(O)NP(=O)(O)O)[C@@H](O)[C@H]1O [adenylyl imidodiphosphate]
Experiment: NP40-soluble protein abundance relative to vehicle (solubility fold change) (ratio); higher = more soluble protein in presence of AMP-PNP
Summary of the method: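 Data come from three independent experiments in which Dounce-homogenised Jurkat crude lysate was treated at eight concentrations from 0.1 to 10 mM. Treatment ran 10 min at room temperature and then 3 min at 37 °C, after which 0.8% NP40 and benzonase were added for 60 min at 4 °C before ultracentrifugation. The supernatant underwent TMT labelling and LC-MS/MS, and vsn-normalised intensities were expressed as fold change against the detergent-processed vehicle in each replicate.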

Protein sequences, listed by entry. Tags and fused reporters are not part of them. Lines headed by an entry give the natural chain unless they say otherwise; changes in a name come on top.
UniProt P09110: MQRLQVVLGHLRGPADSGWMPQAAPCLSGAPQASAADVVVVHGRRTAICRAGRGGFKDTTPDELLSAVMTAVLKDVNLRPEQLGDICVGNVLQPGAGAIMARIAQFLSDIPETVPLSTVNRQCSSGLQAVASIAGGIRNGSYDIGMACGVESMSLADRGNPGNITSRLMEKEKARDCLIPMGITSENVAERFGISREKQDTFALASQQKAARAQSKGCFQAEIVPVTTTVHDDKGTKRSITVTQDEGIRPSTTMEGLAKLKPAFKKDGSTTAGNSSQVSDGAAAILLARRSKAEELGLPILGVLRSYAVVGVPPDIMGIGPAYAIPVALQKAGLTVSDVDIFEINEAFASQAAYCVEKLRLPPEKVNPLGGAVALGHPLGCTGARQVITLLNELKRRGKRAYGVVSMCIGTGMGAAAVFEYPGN
UniProt O95777: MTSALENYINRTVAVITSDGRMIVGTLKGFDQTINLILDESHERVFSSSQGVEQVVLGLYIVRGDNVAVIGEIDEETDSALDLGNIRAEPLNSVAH
UniProt P07737, whole entry: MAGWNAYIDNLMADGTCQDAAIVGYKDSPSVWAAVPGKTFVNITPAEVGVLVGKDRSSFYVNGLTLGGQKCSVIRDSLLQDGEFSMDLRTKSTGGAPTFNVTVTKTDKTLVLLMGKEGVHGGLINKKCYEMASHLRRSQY
UniProt P14866: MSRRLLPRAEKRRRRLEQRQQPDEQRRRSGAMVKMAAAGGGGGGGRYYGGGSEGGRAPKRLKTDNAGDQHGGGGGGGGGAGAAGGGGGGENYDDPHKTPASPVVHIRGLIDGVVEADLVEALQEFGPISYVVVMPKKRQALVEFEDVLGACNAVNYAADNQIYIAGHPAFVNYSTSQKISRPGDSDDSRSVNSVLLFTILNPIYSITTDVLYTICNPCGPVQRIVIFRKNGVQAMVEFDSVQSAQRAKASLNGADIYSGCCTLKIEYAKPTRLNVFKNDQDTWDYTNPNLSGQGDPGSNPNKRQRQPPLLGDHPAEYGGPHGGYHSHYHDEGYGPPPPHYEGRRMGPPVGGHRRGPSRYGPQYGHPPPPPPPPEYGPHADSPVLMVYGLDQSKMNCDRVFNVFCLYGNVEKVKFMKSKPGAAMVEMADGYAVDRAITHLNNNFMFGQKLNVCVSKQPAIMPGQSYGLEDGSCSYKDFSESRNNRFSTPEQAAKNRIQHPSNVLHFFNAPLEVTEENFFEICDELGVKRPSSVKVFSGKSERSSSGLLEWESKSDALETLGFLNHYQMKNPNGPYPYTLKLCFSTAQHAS
UniProt P04818: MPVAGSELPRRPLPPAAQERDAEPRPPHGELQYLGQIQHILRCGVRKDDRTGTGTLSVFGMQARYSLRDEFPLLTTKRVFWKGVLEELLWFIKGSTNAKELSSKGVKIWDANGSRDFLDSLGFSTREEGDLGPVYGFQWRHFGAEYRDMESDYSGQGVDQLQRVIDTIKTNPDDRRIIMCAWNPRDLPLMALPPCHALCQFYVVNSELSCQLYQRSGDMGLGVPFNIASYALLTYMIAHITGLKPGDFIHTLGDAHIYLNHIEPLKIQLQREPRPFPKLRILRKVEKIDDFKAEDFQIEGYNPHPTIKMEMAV
UniProt P11021: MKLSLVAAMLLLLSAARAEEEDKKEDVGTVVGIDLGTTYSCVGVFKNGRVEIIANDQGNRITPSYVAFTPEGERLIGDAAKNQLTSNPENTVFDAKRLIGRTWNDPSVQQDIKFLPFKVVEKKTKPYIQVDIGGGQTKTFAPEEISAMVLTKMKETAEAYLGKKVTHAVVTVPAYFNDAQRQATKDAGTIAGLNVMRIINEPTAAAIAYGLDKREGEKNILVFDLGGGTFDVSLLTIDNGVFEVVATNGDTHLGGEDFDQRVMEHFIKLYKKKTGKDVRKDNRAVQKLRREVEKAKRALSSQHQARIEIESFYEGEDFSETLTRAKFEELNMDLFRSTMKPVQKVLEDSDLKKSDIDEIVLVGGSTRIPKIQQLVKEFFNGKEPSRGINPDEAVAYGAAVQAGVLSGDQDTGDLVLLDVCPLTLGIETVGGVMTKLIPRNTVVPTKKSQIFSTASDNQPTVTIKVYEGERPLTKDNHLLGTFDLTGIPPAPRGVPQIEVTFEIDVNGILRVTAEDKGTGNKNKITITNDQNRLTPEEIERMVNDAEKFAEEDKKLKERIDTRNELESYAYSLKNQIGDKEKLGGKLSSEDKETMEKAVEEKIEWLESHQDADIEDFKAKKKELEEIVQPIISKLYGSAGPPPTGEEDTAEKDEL
UniProt P16401, whole entry: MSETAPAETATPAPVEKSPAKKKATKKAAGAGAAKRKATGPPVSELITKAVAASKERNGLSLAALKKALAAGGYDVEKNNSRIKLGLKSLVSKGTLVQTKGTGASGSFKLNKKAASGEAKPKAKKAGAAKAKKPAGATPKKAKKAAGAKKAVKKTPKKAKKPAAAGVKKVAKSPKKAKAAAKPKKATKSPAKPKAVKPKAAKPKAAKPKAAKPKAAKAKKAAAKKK
UniProt P12236: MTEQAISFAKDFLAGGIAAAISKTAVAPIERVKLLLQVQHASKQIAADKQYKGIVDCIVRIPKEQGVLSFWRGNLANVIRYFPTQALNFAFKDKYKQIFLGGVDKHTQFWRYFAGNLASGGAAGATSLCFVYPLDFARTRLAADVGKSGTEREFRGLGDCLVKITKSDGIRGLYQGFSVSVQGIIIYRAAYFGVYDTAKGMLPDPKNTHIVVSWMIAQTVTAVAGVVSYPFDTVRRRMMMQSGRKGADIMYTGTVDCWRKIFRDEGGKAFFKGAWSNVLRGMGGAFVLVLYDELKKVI
UniProt P11388: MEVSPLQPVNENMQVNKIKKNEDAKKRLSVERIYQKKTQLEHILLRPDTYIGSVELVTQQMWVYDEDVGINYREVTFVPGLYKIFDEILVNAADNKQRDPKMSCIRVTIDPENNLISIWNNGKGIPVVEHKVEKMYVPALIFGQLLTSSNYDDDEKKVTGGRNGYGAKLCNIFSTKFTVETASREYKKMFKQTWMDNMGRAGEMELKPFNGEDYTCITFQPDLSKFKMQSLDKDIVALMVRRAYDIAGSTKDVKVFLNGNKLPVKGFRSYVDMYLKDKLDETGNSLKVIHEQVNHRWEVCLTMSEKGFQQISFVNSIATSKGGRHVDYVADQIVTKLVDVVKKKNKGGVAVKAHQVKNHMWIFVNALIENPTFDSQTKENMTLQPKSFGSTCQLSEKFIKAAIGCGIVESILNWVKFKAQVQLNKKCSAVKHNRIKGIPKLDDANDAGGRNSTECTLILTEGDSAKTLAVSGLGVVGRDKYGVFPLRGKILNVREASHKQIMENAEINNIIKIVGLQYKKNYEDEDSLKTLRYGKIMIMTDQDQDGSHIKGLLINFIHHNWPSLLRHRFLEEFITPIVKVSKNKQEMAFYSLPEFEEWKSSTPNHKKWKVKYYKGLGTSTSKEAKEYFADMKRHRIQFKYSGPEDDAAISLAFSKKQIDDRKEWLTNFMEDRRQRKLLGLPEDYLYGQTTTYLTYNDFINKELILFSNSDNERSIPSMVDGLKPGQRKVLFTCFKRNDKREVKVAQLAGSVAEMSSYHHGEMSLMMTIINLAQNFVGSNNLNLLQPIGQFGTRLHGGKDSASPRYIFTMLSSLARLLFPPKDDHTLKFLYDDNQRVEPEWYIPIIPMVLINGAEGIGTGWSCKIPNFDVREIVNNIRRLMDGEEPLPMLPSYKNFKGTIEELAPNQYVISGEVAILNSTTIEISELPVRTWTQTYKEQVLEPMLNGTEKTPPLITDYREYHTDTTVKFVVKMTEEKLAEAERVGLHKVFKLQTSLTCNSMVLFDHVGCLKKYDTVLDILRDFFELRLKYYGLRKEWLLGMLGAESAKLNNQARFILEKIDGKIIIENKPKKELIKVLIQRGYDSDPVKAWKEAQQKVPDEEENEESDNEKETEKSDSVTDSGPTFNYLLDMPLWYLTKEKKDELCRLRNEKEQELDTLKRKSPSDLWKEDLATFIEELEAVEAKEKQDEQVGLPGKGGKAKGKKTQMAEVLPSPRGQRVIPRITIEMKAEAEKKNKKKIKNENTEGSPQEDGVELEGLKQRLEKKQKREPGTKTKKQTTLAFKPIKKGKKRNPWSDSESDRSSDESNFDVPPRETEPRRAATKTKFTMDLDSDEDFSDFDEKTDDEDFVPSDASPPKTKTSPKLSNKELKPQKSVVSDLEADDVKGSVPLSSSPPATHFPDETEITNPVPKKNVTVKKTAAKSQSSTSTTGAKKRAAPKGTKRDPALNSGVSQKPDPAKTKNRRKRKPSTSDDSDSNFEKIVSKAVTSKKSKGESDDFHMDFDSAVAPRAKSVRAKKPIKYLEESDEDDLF
UniProt P09525: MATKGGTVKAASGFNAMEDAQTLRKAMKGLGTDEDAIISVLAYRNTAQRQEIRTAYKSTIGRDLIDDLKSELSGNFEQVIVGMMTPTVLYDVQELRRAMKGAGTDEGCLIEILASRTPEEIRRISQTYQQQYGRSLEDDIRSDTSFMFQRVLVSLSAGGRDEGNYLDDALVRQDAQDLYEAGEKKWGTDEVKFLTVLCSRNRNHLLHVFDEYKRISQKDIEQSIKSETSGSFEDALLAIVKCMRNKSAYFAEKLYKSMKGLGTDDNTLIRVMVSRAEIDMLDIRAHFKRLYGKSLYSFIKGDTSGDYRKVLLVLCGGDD
UniProt P07099: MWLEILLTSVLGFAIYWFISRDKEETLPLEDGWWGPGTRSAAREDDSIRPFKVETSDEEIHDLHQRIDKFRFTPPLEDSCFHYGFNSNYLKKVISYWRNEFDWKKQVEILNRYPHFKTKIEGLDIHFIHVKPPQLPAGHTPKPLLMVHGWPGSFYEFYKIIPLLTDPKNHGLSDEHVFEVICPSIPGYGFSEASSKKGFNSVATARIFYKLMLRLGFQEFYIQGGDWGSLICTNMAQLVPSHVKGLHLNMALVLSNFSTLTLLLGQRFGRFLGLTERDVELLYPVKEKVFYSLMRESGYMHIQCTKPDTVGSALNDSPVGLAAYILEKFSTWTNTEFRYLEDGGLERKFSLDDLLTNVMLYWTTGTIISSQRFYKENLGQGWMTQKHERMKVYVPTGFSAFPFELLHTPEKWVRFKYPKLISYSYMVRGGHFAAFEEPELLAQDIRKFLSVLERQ
UniProt P10412, whole entry: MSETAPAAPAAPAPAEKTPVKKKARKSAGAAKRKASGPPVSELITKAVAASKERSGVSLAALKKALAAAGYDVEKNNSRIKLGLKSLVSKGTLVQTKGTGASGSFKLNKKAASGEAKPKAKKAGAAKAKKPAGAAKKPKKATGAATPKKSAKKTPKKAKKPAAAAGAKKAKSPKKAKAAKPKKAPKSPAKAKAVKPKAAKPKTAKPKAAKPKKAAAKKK
UniProt P04035: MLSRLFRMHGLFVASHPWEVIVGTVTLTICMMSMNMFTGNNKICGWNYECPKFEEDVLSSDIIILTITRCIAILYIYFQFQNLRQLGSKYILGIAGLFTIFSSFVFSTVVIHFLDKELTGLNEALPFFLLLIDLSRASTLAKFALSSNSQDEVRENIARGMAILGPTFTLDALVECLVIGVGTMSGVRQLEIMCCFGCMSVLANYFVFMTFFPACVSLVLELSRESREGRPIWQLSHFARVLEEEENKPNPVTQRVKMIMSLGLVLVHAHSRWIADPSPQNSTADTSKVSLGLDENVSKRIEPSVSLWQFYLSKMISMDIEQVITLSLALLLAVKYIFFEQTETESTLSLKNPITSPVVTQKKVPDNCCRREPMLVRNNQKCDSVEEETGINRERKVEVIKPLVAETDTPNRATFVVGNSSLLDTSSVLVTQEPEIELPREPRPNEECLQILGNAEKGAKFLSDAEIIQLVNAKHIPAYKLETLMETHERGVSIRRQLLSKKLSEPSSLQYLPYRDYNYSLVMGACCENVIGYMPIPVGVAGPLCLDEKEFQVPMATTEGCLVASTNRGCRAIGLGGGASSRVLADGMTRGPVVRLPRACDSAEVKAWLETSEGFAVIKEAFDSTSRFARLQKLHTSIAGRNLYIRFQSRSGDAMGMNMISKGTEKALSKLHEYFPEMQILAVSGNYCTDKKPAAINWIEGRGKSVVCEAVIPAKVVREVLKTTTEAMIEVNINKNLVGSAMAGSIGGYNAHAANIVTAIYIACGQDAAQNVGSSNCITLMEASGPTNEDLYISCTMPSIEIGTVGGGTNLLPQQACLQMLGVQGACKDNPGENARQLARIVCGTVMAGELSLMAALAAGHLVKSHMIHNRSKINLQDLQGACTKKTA
UniProt P05198, whole entry: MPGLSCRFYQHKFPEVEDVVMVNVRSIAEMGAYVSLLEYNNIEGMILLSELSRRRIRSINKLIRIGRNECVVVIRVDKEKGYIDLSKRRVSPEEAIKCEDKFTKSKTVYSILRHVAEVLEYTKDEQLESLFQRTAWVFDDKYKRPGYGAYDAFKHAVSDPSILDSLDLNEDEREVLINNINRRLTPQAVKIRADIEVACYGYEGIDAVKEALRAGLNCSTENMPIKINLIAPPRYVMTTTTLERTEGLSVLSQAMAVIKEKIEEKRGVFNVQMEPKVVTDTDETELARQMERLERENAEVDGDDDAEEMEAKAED

Target	NP40-soluble protein abundance (concentration: 1mM)	NP40-soluble protein abundance (concentration: 2mM)	NP40-soluble protein abundance (concentration: 4mM)	NP40-soluble protein abundance (concentration: 6mM)	NP40-soluble protein abundance (concentration: 8mM)	NP40-soluble protein abundance (concentration: 10mM)
ACAA1 (UniProt P09110)	0.993 ± 0.012	0.975 ± 0.021	1 ± 0.024	0.9983 ± 0.0097	0.991 ± 0.014	0.99 ± 0.023
TSPAN13 (UniProt O95857)	0.986 ± 0.022	1.04 ± 0.051	0.982 ± 0.015	0.964 ± 0.018	0.972 ± 0.03	0.988 ± 0.047
HMGN2 (UniProt P05204)	1.06 ± 0.04	1.15 ± 0.12	1.09 ± 0.05	1.25 ± 0.081	1.16 ± 0.21	1.54 ± 0.28
UniProt O95831 and related entries	0.9988 ± 0.0052	0.941 ± 0.075	0.97 ± 0.028	0.9628 ± 0.0027	0.984 ± 0.038	0.944 ± 0.023
UniProt O95777 and related entries	0.96 ± 0.022	0.962 ± 0.036	0.993 ± 0.013	0.966 ± 0.015	1.01 ± 0.042	0.97 ± 0.049
PFN1 (UniProt P07737)	1.06 ± 0.042	1.12 ± 0.15	1.06 ± 0.018	1.08 ± 0.11	1.12 ± 0.026	1.15 ± 0.047
HNRNPL (UniProt P14866)	1.04 ± 0.096	1.08 ± 0.043	1.03 ± 0.089	1.02 ± 0.14	1.03 ± 0.12	1.08 ± 0.16
UniProt P01112	1.06 ± 0.026	1.04 ± 0.016	1.03 ± 0.021	1 ± 0.062	1.06 ± 0.021	1.01 ± 0.025
TYMS (UniProt P04818)	0.938 ± 0.03	0.853 ± 0.1	0.908 ± 0.013	0.922 ± 0.029	0.939 ± 0.015	0.874 ± 0.013
ICAM2 (UniProt P13598)	1.09 ± 0.034	1.1 ± 0.092	1.03 ± 0.079	1.03 ± 0.024	1.02 ± 0.032	0.975 ± 0.076
UniProt P11310 and related entries	1.02 ± 0.017	0.995 ± 0.034	0.988 ± 0.022	1.02 ± 0.037	1 ± 0.049	1.01 ± 0.049
UniProt P12955 and related entries	0.991 ± 0.025	0.934 ± 0.097	0.972 ± 0.044	0.944 ± 0.027	0.961 ± 0.038	0.916 ± 0.025
HSPA5 (UniProt P11021)	1.04 ± 0.031	1.08 ± 0.043	1.02 ± 0.034	1.01 ± 0.053	0.988 ± 0.035	1 ± 0.051
UniProt P11234 and related entries	1.02 ± 0.034	0.998 ± 0.039	1 ± 0.045	1.04 ± 0.037	1.03 ± 0.064	1.02 ± 0.064
HIST1H1B (UniProt P16401)	1.052 ± 0.0074	1.18 ± 0.18	1.15 ± 0.11	1.27 ± 0.22	1.32 ± 0.21	1.59 ± 0.19
PYGB (UniProt P11216)	1.06 ± 0.1	1.09 ± 0.15	1.35 ± 0.14	1.43 ± 0.17	1.54 ± 0.24	1.47 ± 0.24
UniProt P06213-2|P06213	0.995 ± 0.035	1.02 ± 0.045	0.997 ± 0.022	0.954 ± 0.025	0.969 ± 0.022	0.94 ± 0.014
SLC25A6 (UniProt P12236)	0.929 ± 0.069	0.9307 ± 0.0093	0.932 ± 0.029	1.01 ± 0.049	0.993 ± 0.051	1.03 ± 0.072
UniProt P11388 and related entries	1.66 ± 0.082	1.72 ± 0.05	1.82 ± 0.16	1.98 ± 0.14	2.04 ± 0.24	2.13 ± 0.27
UniProt P09525 and related entries	0.97 ± 0.046	0.94 ± 0.022	0.987 ± 0.018	1.02 ± 0.081	1.05 ± 0.036	1 ± 0.029
EPHX1 (UniProt P07099)	0.953 ± 0.024	0.957 ± 0.037	0.996 ± 0.041	0.952 ± 0.044	0.962 ± 0.081	0.956 ± 0.045
UniProt P06733 and related entries	1.01 ± 0.049	1.02 ± 0.013	0.986 ± 0.017	0.989 ± 0.024	0.978 ± 0.03	0.986 ± 0.036
HIST1H1E (UniProt P10412)	1.04 ± 0.06	1.15 ± 0.09	1.12 ± 0.05	1.25 ± 0.15	1.24 ± 0.23	1.56 ± 0.14
UniProt P04035 and related entries	0.971 ± 0.01	0.98 ± 0.021	0.98 ± 0.022	0.971 ± 0.018	0.978 ± 0.034	0.975 ± 0.027
EIF2S1 (UniProt P05198)	1.01 ± 0.031	0.947 ± 0.078	1.02 ± 0.019	1.04 ± 0.034	1.07 ± 0.029	1.05 ± 0.026
UniProt P05388 and related entries	0.99 ± 0.024	0.989 ± 0.062	0.952 ± 0.04	0.98 ± 0.052	0.936 ± 0.055	1.02 ± 0.054

Single records, as listed above:
SLC25A6 (UniProt P12236) in the list: NP40-soluble protein abundance (concentration: 1mM): 0.929 ± 0.069; NP40-soluble protein abundance (concentration: 2mM): 0.9307 ± 0.0093; NP40-soluble protein abundance (concentration: 4mM): 0.932 ± 0.029; NP40-soluble protein abundance (concentration: 6mM): 1.01 ± 0.049; NP40-soluble protein abundance (concentration: 8mM): 0.993 ± 0.051; NP40-soluble protein abundance (concentration: 10mM): 1.03 ± 0.072
HMGN2 (UniProt P05204) in the list: NP40-soluble protein abundance (concentration: 1mM): 1.06 ± 0.04; NP40-soluble protein abundance (concentration: 2mM): 1.15 ± 0.12; NP40-soluble protein abundance (concentration: 4mM): 1.09 ± 0.05; NP40-soluble protein abundance (concentration: 6mM): 1.25 ± 0.081; NP40-soluble protein abundance (concentration: 8mM): 1.16 ± 0.21; NP40-soluble protein abundance (concentration: 10mM): 1.54 ± 0.28
